Results taken from article PMC6488628.
These are yes or no findings as the source states them, for the method shown. Binding calls can cover weak binding; strength is not graded here.

Biological target: T1, MmOnzin (Onzin from Mus musculus) (Mus musculus) (UniProt Q9JI48)
T1 sequence: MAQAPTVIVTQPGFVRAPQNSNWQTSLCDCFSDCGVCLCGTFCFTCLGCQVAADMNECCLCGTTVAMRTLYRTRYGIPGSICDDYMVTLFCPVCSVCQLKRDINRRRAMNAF
Experiment: two-hybrid; DupLEX-A yeast system (Origene); LexA DNA-binding domain fusion and B42 activator domain fusion; media and growth as in ref. 19

For “C-terminal region of MLH3 from Mus musculus (domain or fragment)”, the binding was “binds”.
